Library screen at single concentrations

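Whole-parasite assay of Trypanosoma brucei over 72 hours; the read-out is not stated. Tested at 30 µM. Higher reads as stronger inhibition (inferred: compounds with an IC50 in retests scored well above the rest). Values scatter widely below zero; nearly all retest evidence comes from the higher of the two concentrations used. Of about 64,000 compounds tested this way, about 940 (1.5%) reached 50% or more in at least one test.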

The filed quantity is “Percent Effect” (%).
The controls that fix the scale are not given in the record; negative values are as filed.
The compounds are a random part of those screened.

| SMILES | effect |
|---|---|
| `O=C(O)C(F)(F)F.O=C(O)C(F)(F)F.[H][C@]12CCN(C(=O)CC(C)C)CC[C@@]1([H])S(=O)(=O)CCN2Cc1cccnc1` | -39.88 |
| `O=C1CC(CNc2cncc(Br)c2)c2ccccc2N1` (stereo not given) | -4.692 |
| `[H][C@@]12CS(=O)(=O)C[C@]1([H])N(Cc1nccn1C)CCN2CC1CC1` | -20.35 |
| `CNC(=O)c1ccc(C2CN(C(=O)c3coc(C)n3)CCO2)nc1` (stereo not given) | -17.81 |
| `FC(F)Oc1ccc(NCc2nc(C3CC3)no2)c(OC(F)F)c1` | -28.55 |
| `CCn1nc(C)c2nnn(CC(=O)Nc3cccc(C)c3)c(=O)c21` | 0.6198 |
| `CNC(=O)C1CCCN(C(=O)NCCC2Cc3ccccc3C2)C1` (stereo not given) | -74.23 |
| `COc1cccc(CC(=O)NCC(Cc2ccc(F)cc2)C(N)=O)c1` (stereo not given) | -13.64 |
| `Cc1nn(-c2ncnc3[nH]cnc23)c2c1C(C(C)C)CC(=O)N2` (stereo not given) | 16.15 |
| `NCC1Cc2cc(-c3cncc(C(=O)N4CCCCC4)n3)cc(F)c2O1` (stereo not given) | 19.56 |
| `O=C(O)C(F)(F)F.[H][C@@]12COC[C@@H](CC(=O)NCCOC)[C@]1([H])CN(CC1CCOCC1)C2` | -16.2 |
| `CSCc1cc(F)ccc1CNC(=O)N1CCCC1` | -15.42 |
| `Cc1ncncc1C(=O)N1CCCN(Cc2cnn(C(C)C)c2)CC1` | -54.04 |
| `CC(C)[C@H]1CN(Cc2ccccc2C#N)C[C@@H]1NC(=O)C1CCOCC1` | 2.579 |
| `CCOc1ccnc(N2CCCN(c3nc(C4CC4)ns3)CC2)n1` | 27.74 |
| `Cc1ccc(-c2ccnc(NC(c3ncccc3C)C3CC3)n2)c(C)n1` (stereo not given) | -69.26 |
| `O=C(O)C(F)(F)F.[H][C@]12CCN(c3ccc(C)nn3)[C@@]1([H])CCC(=O)N2CCN1CCOCC1` | -50.82 |
| `CCc1nc2ccccc2n1C(CC)C(=O)N(C)CCc1noc(C)n1` (stereo not given) | -33.76 |
| `CN(C)CCCN(Cc1cnn(C)c1)Cc1ccco1.O=C(O)CC(O)(CC(=O)O)C(=O)O` | -23.52 |
| `COc1ccc(COCC(=O)NC2CCc3nc(C)cn3C2)cc1` (stereo not given) | 23.96 |
| `Cc1cc(C[C@@H]2COC[C@@H]2NC(=O)CNC(=O)N(C)C)on1` | -42.23 |
| `CCN(CC1CCOC1)C(=O)c1ccn(-c2cc(C)ccc2OC)n1` (stereo not given) | -18.75 |
| `[H][C@]12CN(Cc3ccccc3Cl)CCN1C(=O)N(Cc1ccc(C)cc1)C2` | -10.74 |
| `CCOc1ccccc1OC1CCN(C(=O)c2nc(=O)[nH][nH]2)CC1` | 12.18 |
| `COCCC(=O)N1CCC2(CC1)CC(c1ccccc1)CN(C)C2` (stereo not given) | 9.093 |
| `Cc1nnc(NC(=O)c2cc(S(=O)(=O)N3CCSCC3)c[nH]2)s1` | 37.66 |
| `CC(C)N1CCN(C(=O)C(C)n2cncn2)CC1` (stereo not given) | 7.196 |
| `CCOc1cc(C)nc(N2CCN(Cc3nccn3CC)CC2)n1` | -19.55 |
| `O=C(c1ccccn1)N1CC(S(=O)(=O)c2ccc(Cl)cc2)C1` | -30.21 |
| `Cc1cc(NC2CCN(Cc3ccccn3)CC2)n2nc(C)c(C)c2n1` | -62.8 |
| `Cc1ccccc1C(=O)NCc1ccc(N2CCNC(=O)C2)cc1` | -0.6469 |
| `Cc1cc(NC(=O)CCn2nc(C)c3ccccc32)n(C)n1` | 0.9384 |
| `Cc1noc(C2CCCN(Cn3cc(Cl)cn3)C2)n1` (stereo not given) | -69.13 |
| `COc1ccc(OC)c(-c2csc(-c3cccc(C(=O)O)c3)n2)c1` | -11.07 |
| `Cc1ccc(N2CCC3(CCN(C(=O)c4ccoc4)CC3)CC2)nn1.O=C(O)C(F)(F)F` | 28.35 |
| `CSc1cc(CNC(=O)CCOc2ccccc2C)ccn1` | -36.75 |
| `CC(C)NC(=O)N1CCC2(CC(=O)N(c3ccsc3)C2)C1` (stereo not given) | -47.72 |
| `c1ccc2c(N3CCOCC3)cnnc2c1` | 12.79 |
| `COc1ccc(OC)c(C2CCN(C3CCOCC3)C2)c1` (stereo not given) | -75.63 |
| `COc1ccc2c(c1)CN(C)C(=O)CCN2CC(O)C(F)(F)F` (stereo not given) | -24.46 |
| `O=C1NCC(C(=O)Nc2ncc(Cc3ccccc3)s2)N1` (stereo not given) | -15.02 |
| `[H][C@@]12C[C@H](C(=O)N(C)C)CN(Cc3ccccn3)[C@]1([H])CCO2` | -7.148 |
| `CC(=O)Nc1ccc(CN2CCCC(c3cc4ncccc4[nH]3)C2)cc1` (stereo not given) | 8.67 |
| `Cn1cc(C#N)cc1C(=O)N1CCC2(CCCN(CC3CCC3)C2=O)C1` (stereo not given) | -39.23 |
| `O=C(O)c1ccc2c(c1)C1(CCCCC1)CN2C(=O)c1ccnnc1` | -13.34 |
| `Cc1cccc2c1C(=O)NC(c1cnc(C3CCC3)s1)N2` (stereo not given) | -24.51 |
| `COc1ccc(S(=O)(=O)N2CCc3ccc(F)cc32)cc1C(=O)O` | 5.478 |
| `O=C(O)C(F)(F)F.[H][C@@]12CCCO[C@]1([H])[C@H](NC(=O)c1cnoc1C)CN(C1CCC1)C2` | -68.4 |
| `COCC(=O)N1CCc2cccc(S(=O)(=O)N3CCOCC3)c2C1` | -16.44 |
| `COc1cc(C)ccc1OCCC(=O)N1CCCC1Cn1cccn1` (stereo not given) | 21.38 |
| `[H][C@@]12CN(CC(C)C)C[C@]1(C(=O)NCC1CC1)CCCN2c1ncccn1` | -43.14 |
| `[H][C@@]12CS(=O)(=O)C[C@]1([H])NCCN2c1ccnc(N(C)Cc2nccs2)n1` | 23.39 |
| `CN(Cc1cccc(C#N)c1)C(=O)C1CC(c2cccc(F)c2)=NO1` (stereo not given) | 25.27 |
| `CC(C)c1nc(C2CCCN2CC(=O)Nc2ccc(Cl)cn2)no1` (stereo not given) | -28.57 |
| `Cc1ccc(N2CCN(c3ccccc3C)CC2C)nn1` (stereo not given) | -104.7 |
| `CC(C)(C)CCNC(=O)c1ccc(Cl)c(NS(C)(=O)=O)c1` | -17.35 |
| `N#Cc1cccc(S(=O)(=O)NC2CCN(Cc3ccccc3)C2=O)c1` (stereo not given) | -32.63 |
| `Cc1cccc(N2CCOCC3(C2)CN(c2ccoc2)C(=O)CO3)n1.O=C(O)C(F)(F)F` (stereo not given) | -6.154 |
| `O=C(Nc1ccnn1C1CCCC1)c1ccc(NC2CC2)nc1` | -95.93 |
| `CCN1CC2(CC1=O)CN(C(=O)N(C)C)CCN(S(C)(=O)=O)C2` (stereo not given) | -54.48 |
| `Cn1cncc1-c1nnc([C@H]2CCN(Cc3cccnc3)C2)o1` | -9.084 |

Data taken from ChEMBL document CHEMBL3988442, “University of Dundee, Small-Polar-MMV Screening Library” (2021).